Source: US20190119357A1, “MESSENGER RIBONUCLEIC ACIDS FOR THE PRODUCTION OF INTRACELLULAR BINDING POLYPEPTIDES AND METHODS OF USE THEREOF” (ModernaTX, Inc., priority 2015, published 2019)
No constants are given. Whether binding was seen depends on the method and setting. For some assays here: Binding seen in cells or lysates may run through a third protein. Some binding calls cover weakened binding; strength is not graded here.

Protein sequences, listed by entry. Tags and fused reporters are not part of them. Lines headed by an entry give the natural chain unless they say otherwise; changes in a name come on top.
UniProt P10415: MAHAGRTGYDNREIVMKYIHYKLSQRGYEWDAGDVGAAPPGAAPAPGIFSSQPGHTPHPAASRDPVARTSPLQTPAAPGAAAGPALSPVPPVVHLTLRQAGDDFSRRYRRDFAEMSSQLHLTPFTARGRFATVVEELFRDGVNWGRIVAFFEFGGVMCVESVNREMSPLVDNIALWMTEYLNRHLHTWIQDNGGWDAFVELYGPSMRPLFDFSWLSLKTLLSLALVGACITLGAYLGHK
UniProt Q07817: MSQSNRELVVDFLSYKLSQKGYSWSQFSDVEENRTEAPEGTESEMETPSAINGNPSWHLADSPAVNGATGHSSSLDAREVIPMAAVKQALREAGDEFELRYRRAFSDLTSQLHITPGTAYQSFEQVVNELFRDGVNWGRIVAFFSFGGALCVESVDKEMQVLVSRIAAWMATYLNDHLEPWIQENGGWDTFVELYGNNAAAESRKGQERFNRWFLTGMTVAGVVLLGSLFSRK
UniProt Q07820: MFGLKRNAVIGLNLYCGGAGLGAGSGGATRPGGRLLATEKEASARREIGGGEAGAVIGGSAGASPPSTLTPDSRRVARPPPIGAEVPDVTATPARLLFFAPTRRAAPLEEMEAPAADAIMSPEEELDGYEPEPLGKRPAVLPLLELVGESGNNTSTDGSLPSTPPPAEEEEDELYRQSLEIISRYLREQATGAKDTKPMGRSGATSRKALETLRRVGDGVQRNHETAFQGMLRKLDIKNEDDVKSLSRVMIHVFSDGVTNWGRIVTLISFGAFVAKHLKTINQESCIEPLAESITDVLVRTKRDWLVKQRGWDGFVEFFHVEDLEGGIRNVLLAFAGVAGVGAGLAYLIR
UniProt Q00987: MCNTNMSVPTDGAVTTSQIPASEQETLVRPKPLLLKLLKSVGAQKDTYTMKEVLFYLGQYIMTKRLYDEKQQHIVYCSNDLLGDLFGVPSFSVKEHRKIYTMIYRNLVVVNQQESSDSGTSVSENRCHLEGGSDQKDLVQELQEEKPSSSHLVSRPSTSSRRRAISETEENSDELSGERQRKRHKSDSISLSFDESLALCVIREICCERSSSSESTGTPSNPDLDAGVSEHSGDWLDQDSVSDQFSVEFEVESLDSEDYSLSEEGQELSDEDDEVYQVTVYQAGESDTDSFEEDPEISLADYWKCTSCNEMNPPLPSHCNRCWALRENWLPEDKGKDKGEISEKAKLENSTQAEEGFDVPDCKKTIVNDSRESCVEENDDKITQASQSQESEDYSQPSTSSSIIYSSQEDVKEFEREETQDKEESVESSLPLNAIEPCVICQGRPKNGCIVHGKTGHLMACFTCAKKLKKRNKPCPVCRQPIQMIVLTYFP

Assays:
BCL-2 (human) = BCL-2 (human) (UniProt P10415); experiment: co-immunoprecipitation from mRNA-transfected cells
BCL-XL (human) = BCL-XL (human) (UniProt Q07817); experiment: co-immunoprecipitation from mRNA-transfected cells
MCL-1 (human) = MCL-1 (human) (UniProt Q07820); experiment: co-immunoprecipitation from lysates of mRNA-transfected HeLa cells
MDM2 [1] = target: MDM2 (UniProt Q00987); experiment: anti-V5 immunoprecipitation from transfected HCT116 cell lysates, blot probed with anti-MDM2
MDM2 [2] = target: MDM2 (UniProt Q00987); experiment: immunoprecipitation from transfected HCT116 cells (FIG. 26)

Row | Binder | binding (BCL-2 (human)) | binding (BCL-XL (human)) | binding (MCL-1 (human)) | binding (MDM2 [1]) | binding (MDM2 [2])
1 | SQT-PUMA-BH3 (designed binder) MIPREEQWAREIGAQLRRMADDLNAQYERRGLSEAKPATPEIQEIVDKVKPQLEEKTNETYGKLEAVQYKTQVLASTNYYIKVRAGDNKYMHLKVFNGPPGQNADRVLTGYQVDKNKDDELTGFDYKDDDDK | binds | binds | binds |  | 
2 | SQT(MDM2)(nt).P3848.cV5 (designed binder) MIPRLTFEHYWAQLTSGLSEAKPATPEIQEIVDKVKPQLEEKTNETYGKLEAVQYKTQVLASTNYYIKVRAGDNKYMHLKVFNGPPGQNADRVLTGYQVDKNKDDELTGFGKPIPNPLLGLDST |  |  |  | binds | binds
3 | SQT-Bad-BH3 (designed binder) MIPRNLWAAQRYGRELRRMSDEFVDSFKKGGLSEAKPATPEIQEIVDKVKPQLEEKTNETYGKLEAVQYKTQVLASTNYYIKVRAGDNKYMHLKVFNGPPGQNADRVLTGYQVDKNKDDELTGFDYKDDDDK | binds | binds |  |  | 
4 | SQT-Noxa-BH3 (designed binder) MIPRPAELEVECATQLRRFGDKLNFRQKLLGLSEAKPATPEIQEIVDKVKPQLEEKTNETYGKLEAVQYKTQVLASTNYYIKVRAGDNKYMHLKVFNGPPGQNADRVLTGYQVDKNKDDELTGFDYKDDDDK |  |  | binds |  | 
